Reference: US20260176260A1, “DUAL RAF AND TUBULIN INHIBITORS AND METHODS OF USE THEREOF” (Deciphera Pharmaceuticals, LLC, priority 2023, published 2026)

Amino acid sequences for entries named in this document (tags omitted). Residues count along the entry.
UniProt P15056, 416-766: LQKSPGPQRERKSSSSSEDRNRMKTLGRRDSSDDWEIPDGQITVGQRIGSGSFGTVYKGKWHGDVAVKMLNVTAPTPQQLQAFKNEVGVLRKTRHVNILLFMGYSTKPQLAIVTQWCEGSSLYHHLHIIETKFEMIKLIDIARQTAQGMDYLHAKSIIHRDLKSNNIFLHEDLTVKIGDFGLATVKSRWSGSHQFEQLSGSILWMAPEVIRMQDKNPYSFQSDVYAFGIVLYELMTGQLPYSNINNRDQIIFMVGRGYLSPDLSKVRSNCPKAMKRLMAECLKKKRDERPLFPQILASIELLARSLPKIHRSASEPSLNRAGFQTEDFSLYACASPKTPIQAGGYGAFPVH
UniProt P04049, 307-648 Y340D/Y341D: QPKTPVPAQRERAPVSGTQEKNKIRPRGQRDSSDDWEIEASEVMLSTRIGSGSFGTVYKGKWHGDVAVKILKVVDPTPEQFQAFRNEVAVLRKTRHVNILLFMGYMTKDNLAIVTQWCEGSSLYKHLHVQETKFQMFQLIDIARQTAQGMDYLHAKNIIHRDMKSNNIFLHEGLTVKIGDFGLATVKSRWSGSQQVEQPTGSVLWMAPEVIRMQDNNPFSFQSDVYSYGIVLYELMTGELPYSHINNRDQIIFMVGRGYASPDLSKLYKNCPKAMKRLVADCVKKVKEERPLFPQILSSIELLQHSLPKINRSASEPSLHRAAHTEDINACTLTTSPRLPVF

Key:
[1] = test system: HCT-116 cells; experiment: HCT-116 cell proliferation assay (resazurin); details: read-out: HCT-116
[2] = test system: MiaPaca-2 cells; experiment: MiaPaca-2 cell proliferation assay (resazurin); details: read-out: MiaPaca-2
[3] = biological target: B-Raf kinase (Homo sapiens, UniProt P15056); experiment: Biochemical assay for B-Raf (coupled pyruvate kinase/lactate dehydrogenase); details: read-out: BRAF
[4] = test system: HPAF-II cells; experiment: HPAF-II cell proliferation assay (resazurin); details: read-out: HPAF-II
[5] = biological target: C-Raf kinase (Homo sapiens, UniProt P04049, Y340D/Y341D); experiment: Biochemical assay for C-Raf (coupled pyruvate kinase/lactate dehydrogenase); details: read-out: CRAF
[6] = test system: Pa16c cells; experiment: Pa16c cell proliferation assay (resazurin); details: read-out: Pa16c; Table 2, inhibition of cell proliferation
[7] = Table 2, inhibition of cell proliferation
[8] = Table 1, inhibition of biochemical activity

Compound `CNC(=O)c1cc(-c2cc(-c3cc(NC(=O)c4ccc(C(F)(F)F)nc4)ccc3C)ccn2)ccn1` has an IC50 [1, 7] of 100 to 500 nM, an IC50 ([1]; Table 3) of 100 to 500 nM and an IC50 [2, 7] of 100 to 500 nM. It also gave an IC50 ([2]; Table 3) of 100 to 500 nM, an IC50 [3, 8] of 100 to 500 nM and an IC50 ([3]; Table 3) of 100 to 500 nM. For the same compound, the IC50 [4, 7] was 100 to 500 nM, the IC50 ([4]; Table 3) was 100 to 500 nM and the IC50 [5, 8] was < 100 nM. For the same compound, the IC50 ([5]; Table 3) was < 100 nM and the IC50 [6] was 1000 to 10000 nM.

Read-outs that look alike come from different tables or passages of the source. The match of structure and compound is tentative.
